Measured values: PMC8457756

Tested on: BlaI_0696 (Clostridium thermocellum DSM 1313)
Assay: EMSA
Conditions: EMSA: 0.5 uM dsDNA probe, semi-pure TF titrated, PBS + NP40, 10 uL; 6% polyacrylamide gel, 0.5x TBE, 100 V 1 h, room temperature running buffer; recombinant protein; protein details: C-terminal 6xHis

Sequence	binding result
AATTCCCTCGGGTCTATCAGCACTCCG (double strand) [BlaI_0696 test oligo]	binds
TGATATGGGGTGTTTGCTGTTTTTGCC (double strand) [negative oligo 27 bp]	binds more weakly

The exact form of at least one protein or probe is not confirmed. The comparison behind a weaker result is the experiment's own reference, which may not be listed here.
